Experimental data: PubChem BioAssay AID743121 (NCATS, 2013)
Aim: 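Genes whose silencing strengthens cell killing by camptothecin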 (primary screen). Cell system: MDA-MB-231 cells, a human breast cancer line. Reagent: single siRNA against human genes, 20 nM siRNA (0.8 pmol per well). Timing: 120 h (drug added 48 h after transfection, read 72 h later). Challenge: camptothecin 20 nM (about EC30) for 72 h; vehicle 0.1% DMSO in parallel plates. Measurement: 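CellTiter-Glo ATP signal, scaled to control siRNA as percent viability; sensitisation given as log2 of untreated divided by camptothecin-treated viability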. Direction: log2 vehicle/camptothecin viability: higher = stronger sensitisation to camptothecin. Hit rule: 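Each gene scored by redundant siRNA activity (RSA) over its individual siRNA ratios; a gene is called active at p < 0.001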.
The deposit covers about 26,000 reagents; this is a random part of them. In the full data, 167 (0.63%) were called active. 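Calls are per gene from RSA p-values that are not deposited; an individual active-marked siRNA can sensitise only weakly.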 Unmarked entries are inactive. The numbers tell different reagents against one gene apart. Further read-outs or replicates are left out here.

Target gene | reagent no. | log2 vehicle/camptothecin viability
PLA2G7 (phospholipase A2 group VII) | 1 | 0.0038
PLA2G7 (phospholipase A2 group VII) | 2 | -0.0343
PLA2G7 (phospholipase A2 group VII) | 3 | -0.26
PLA2G7 (phospholipase A2 group VII) | 4 | -0.461
RABGGTB (Rab geranylgeranyltransferase subunit beta) | 1 | -0.569
RABGGTB (Rab geranylgeranyltransferase subunit beta) | 2 | -0.169
RABGGTB (Rab geranylgeranyltransferase subunit beta) | 3 | -0.525
RABGGTB (Rab geranylgeranyltransferase subunit beta) | 4 | 0.0387
MDH2 (malate dehydrogenase 2) | 1 | -0.316
MDH2 (malate dehydrogenase 2) | 2 | -0.386
MDH2 (malate dehydrogenase 2) | 3 | -0.00379
ADGRA3 (adhesion G protein-coupled receptor A3) | 1 | -0.337
ADGRA3 (adhesion G protein-coupled receptor A3) | 2 | -0.0625
ADGRA3 (adhesion G protein-coupled receptor A3) | 3 | -0.227
ADGRA3 (adhesion G protein-coupled receptor A3) | 4 | -0.355
GDF2 (growth differentiation factor 2) | 1 | -0.233
GDF2 (growth differentiation factor 2) | 2 | -0.386
GDF2 (growth differentiation factor 2) | 3 | -0.0523
GDF2 (growth differentiation factor 2) | 4 | -0.315
IL22 (interleukin 22) | 1 | -0.431
IL22 (interleukin 22) | 2 | -0.0841
IL22 (interleukin 22) | 3 | -0.064
IL22 (interleukin 22) | 4 | -0.147
LEPROT (leptin receptor overlapping transcript) | 1 | -0.042
LEPROT (leptin receptor overlapping transcript) | 2 | -0.455
LEPROT (leptin receptor overlapping transcript) | 3 | -0.322
LEPROT (leptin receptor overlapping transcript) | 4 | -0.165
CYC1 (cytochrome c1) | 1 | 0.159
CYC1 (cytochrome c1) | 2 | -0.176
CYC1 (cytochrome c1) | 3 | -0.391
CYC1 (cytochrome c1) | 4 | 0.0237
TG (thyroglobulin) | 1 | -0.296
TG (thyroglobulin) | 2 | -0.0409
TG (thyroglobulin) | 3 | -0.336
TG (thyroglobulin) | 4 | 0.36
C5AR2 (complement C5a receptor 2) | 1 | -0.428
C5AR2 (complement C5a receptor 2) | 2 | -0.254
C5AR2 (complement C5a receptor 2) | 3 | -0.276
C5AR2 (complement C5a receptor 2) | 4 | -0.67
IFNA2 (interferon alpha 2) | 1 | -0.435
IFNA2 (interferon alpha 2) | 2 | -0.329
IFNA2 (interferon alpha 2) | 3 | 0.0691
IFNA2 (interferon alpha 2) | 4 | 0.723
CPB2 (carboxypeptidase B2) | 1 | -0.643
CPB2 (carboxypeptidase B2) | 2 | -0.103
CPB2 (carboxypeptidase B2) | 3 | 0.272
CPB2 (carboxypeptidase B2) | 4 | -0.205

In a second layout: 3 of the entries above
GDF2 (growth differentiation factor 2) #2
- log2 vehicle/camptothecin viability: -0.386

GDF2 (growth differentiation factor 2) #3
- log2 vehicle/camptothecin viability: -0.0523

GDF2 (growth differentiation factor 2) #4
- log2 vehicle/camptothecin viability: -0.315
